From PMC6060094, “Structural determinants of the catalytic mechanism of Plasmodium CCT, a key enzyme of malaria lipid biosynthesis” (Scientific Reports, 2018)

How the values were obtained:
PfCCT(528–795) T761A = assay: Equilibrium ligand binding by isothermal titration calorimetry (ITC); parameters: species or system Plasmodium falciparum; settings: 20 °C, pH 7.5
Procedure: (§1) Calorimetric measurements were performed on an ITC 200 titration calorimeter (Malvern) at 20 °C. The protein samples were dialyzed against 20 mM HEPES/NaOH pH 7.5, 100 mM NaCl, including 0.5 mM Tris(2-carboxyethyl)phosphine (TCEP) as reducing agent. CTP and CDPCho were diluted from a concentrated stock into the dialysis buffer with subsequent pH adjustment. Concentration of the titrating nucleotide ligands were determined using molar extinction coefficients 9000 M^−1 cm^−1 at 271 nm for CTP and 5000 M^−1 cm^−1 at 260 nm for CDPCho[16]. In the experimental setup, the cell of the instrument was filled with protein and the syringe with the ligand. The titrations typically included 19 steps of injection with 2 μl of ligand per injection spaced 180 s apart from each other, with the injection syringe rotating at 750 r.p.m. The data were analyzed using MICROCAL ORIGIN software following the directions of the manufacturer. To account for dilution, the invariant integrated heat value of the last 3–5 data points was subtracted from all data points. The one set of independent sites binding model was applied to data for determination of thermodynamic parameters: dissociation constant (Kd), stoichiometry (N), enthalpy (ΔH) and entropy (ΔS). Due to the low apparent affinity, the N value was fixed to a constant value of 1 in CTP titrations to PfCCT(528–795) K663A according to the low c value ITC data analysis protocol[40],[41]. For CTP and CDPCho titrations of PfCCT(528–795) K663A, and CTP titrations of T761A and T762A variants of PfCCT(528-795), mean and SD from two independent experiments are provided, whereas for CDPCho titrations of PfCCT(581–775) and PfCCT(528-795) mean and SD from three independent experiments are provided. For PfCCT(528-795) (Y626F/Q636A), errors of model fit to data of a single ligand binding experiment are given.

PfCCT(528–795) T762A = assay: as above; parameters: species or system Plasmodium falciparum; settings: 20 °C, pH 7.5
Procedure: as §1

SMILES: Nc1ccn([C@@H]2O[C@H](COP(=O)(O)OP(=O)(O)OP(=O)(O)O)[C@@H](O)[C@H]2O)c(=O)n1 [CTP]
- ΔGCTP (PfCCT(528–795) T761A): -5.1 ± 0.1 kcal/mol
- ΔHCTP (PfCCT(528–795) T761A): -7.0 ± 0.8 kcal/mol
- −TΔSCTP (PfCCT(528–795) T761A): 1.9 ± 1.0 kcal/mol
- ΔGCTP (PfCCT(528–795) T762A): -5.1 ± 0.1 kcal/mol
- ΔHCTP (PfCCT(528–795) T762A): -10.5 ± 0.7 kcal/mol
- −TΔSCTP (PfCCT(528–795) T762A): 5.5 ± 0.8 kcal/mol
